{"source": "patent EP0411567A1", "about": "“5-(omega-Aminoacyl)-5,10-dihydro-11H-dibenzo[b,e][1,4]-diazepin-11-ones, processes for their preparation, and their use as medicaments” (ARZNEIMITTELWERK DRESDEN GmbH, priority 1989, dated 1991)", "system": "Wistarratten", "experiment": "Orienting determination of acute toxicity in rats, i.v.", "assay_type": "in vivo, Ratte", "settings": "therapeutic breadth; rat LD₅₀ i.v. / rat CaCl₂-arrhythmia ED₅₀", "source_text": "Die Verbindungen der allgemeinen Formeln I, VII bzw. X zeigen bei intravenöser Anwendung an Ratten eine bessere Verträglichkeit als ihre Referenzpräparate.\nED₅₀ i.v. = Dosis in mg/kg, welche die fibrillatorische Wirkung von CaCl₂ an Ratten nach I.v.-Applikation der Testsubstanz um 50 % unterdrückt. Berechnung nach der Probit-Regressionsanalyse mit Vertrauensbereich, p = 0,05 (Werte in Klammern) LD₅₀ i.v. = Letale Dosis in mg/kg bei 50 % der Versuchstiere einer orientierenden Bestimmung der akuten Toxizität an Wistarratten hauseigener Zucht, I.v.-Applikation in die Schwanzvene, 3 - 4 Dosierungen zu je 10 Tieren.\nBerechnung nach der Probit-Regressionsanalyse mit Vertrauensbereich, p = 0,05 (Werte in Klammern) [formula] zur Ermittlung der therapeutischen Breite eff. Dosis = effektive Dosis in mg/kg Wirkungsdauer = Wirkungsdauer in Minuten an Hunden, 24 h nach zweistufiger Koronarligatur"}
{"smiles": "CCN(CC)CC(=O)Nc1c(C)cccc1C", "note": "[Lidocain, reference compound]", "values": [{"measurement": "Q LD₅₀/ED₅₀", "result": "5,8"}]}
